Source: PubChem BioAssay AID540256 (National Center for Advancing Translational Sciences (NCATS), 2011)
About 3,700 (1.2%) of roughly 300,000 compounds were called active. Inconclusive results, whose numbers are uncertain, are shown with a selection of clear calls. The call rests on the fitted dose curve; tested in HEK293 cells. A potency beside an inconclusive call is a rough fit, not a confirmed value.
Potency means the concentration at half of the fitted maximal effect.

Assay: qHTS for Inhibitors of binding or entry into cells for Lassa Virus; further: nearly all actives have a fitted effect of over 50% in size
Conditions: Lassa virus pseudotype entry inhibition, cell reporter; series mostly up to 37.9 µM
In the case of `CCOC(=O)c1cc(-c2ccccc2)sc1NC(=O)c1cc(OC)c(OC)c(OC)c1`, the Potency is reported as “inactive”. For `O=C(N/C(=C\c1ccc(Br)cc1)C(=O)N1CCOCC1)c1ccc([N+](=O)[O-])cc1`, the Potency was “inactive”. With `CCc1cc(-c2nc(N)ncc2-c2ccc(Br)cc2)c(O)cc1OC` the Potency was inconclusive: 0.103 µM [inhibitor, full curve]. In the case of `COc1ccc(NC(=O)/C(C#N)=C/c2c(C)nn(-c3ccc(F)cc3)c2Cl)cc1OC`, the Potency is reported as inconclusive: 29.1 µM [inhibitor, single point]. For `N/C(=N\OC(=O)CCC1CCCC1)c1cccc([N+](=O)[O-])c1`, the Potency was “inactive”. In the case of `CS(=O)(=O)c1ccc2nc(NC3(C(F)(F)F)N=C4SCCN4C3=O)sc2c1` (stereo not given), the Potency is reported as inconclusive: 23.1 µM [inhibitor, single point]. For `CC(=O)c1ccc(N2CCN(S(=O)(=O)c3cn(C)cn3)CC2)cc1`, the Potency was inconclusive: 12.6 µM [activator, partial curve, poor fit]. With `COc1ccc(CC(=O)Nc2ccc(F)c(S(=O)(=O)N3CCOCC3)c2)cc1` the Potency was “inactive”. With `COc1ccc(-c2cc(C(F)(F)F)nc(S(=O)(=O)CCCC(=O)Nc3ccccc3C(F)(F)F)n2)cc1OC` the Potency was “inactive”. With `O=C1OC(c2ccc(O)cc2)(c2ccc(O)cc2)c2ccccc21` the Potency was inconclusive: 23.1 µM [inhibitor, partial curve, poor fit]. With `CC(=O)NC(=O)NC1OC(=O)C(Cl)=C1Cl` (stereo not given) the Potency was “inactive”. In the case of `COc1ccc(CNC(=O)c2c(N)n(CCCN3CCOCC3)c3nc4ccccc4nc23)cc1`, the Potency is reported as active: 23.1 µM. In the case of `CCOc1ccc(NC(=O)c2ccc(NC(=O)c3ccc(NC(N)=O)cc3)cc2)cc1`, the Potency is reported as “inactive”. For `O=C(c1ccccc1)N1CCOC(O)(c2ccccc2)C1c1ccccc1` (stereo not given), the Potency was “inactive”. In the case of `CC(=O)Nc1ccc(NS(=O)(=O)c2ccc(-c3cnc(C4CC4)o3)cc2)cc1`, the Potency is reported as inconclusive: 22.4 µM [inhibitor, single point]. In the case of `COc1ccc(Cl)cc1NC(=O)c1c(C(=O)Nc2cccc(C)c2C)sc2nc(C)cc(=O)n12`, the Potency is reported as inconclusive: 6.31 µM [activator, single point]. With `Cc1ccc(NC(=O)c2nnn(CC(=O)Nc3ccccc3)c2N)cc1C` the Potency was “inactive”. With `O=C(Nc1ccccc1)c1ccc(NCc2ccco2)c(S(=O)(=O)N2CCOCC2)c1` the Potency was inconclusive: 10.3 µM [inhibitor, partial curve]. With `Cc1ccc(NC(=O)C(OC(=O)c2ccc(NC(N)=O)cc2)c2ccccc2)cc1Cl` (stereo not given) the Potency was inconclusive: 11.2 µM [inhibitor, single point]. With `COc1ccc2c(c1)NC1(O)c3ccccc3C(=O)C21O` (stereo not given) the Potency was inconclusive: 1.03 µM [inhibitor, full curve].
